{
  "source": "PubChem BioAssay AID256",
  "about": "(DTP/NCI, 2004)",
  "test_system": "CD2F1 mice, L1210 leukemia ip, survival T/C",
  "assay": "NCI In Vivo Anticancer Drug Screen. Data for tumor model L1210 Leukemia (intraperitoneal) in CD2F1 (CDF1) mice",
  "settings": "higher T/C = longer survival",
  "in_short": "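Transplantable tumor in mice; compound-treated vs vehicle-treated groups. Read-out = treated/control ratio of the measured endpoint.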",
  "key": {"[1]": {"settings": "T/C endpoint: mean survival time, dose: 400.0 mg/kg/injection, schedule: Q04DX003 (ip), vehicle: saline with Tween-80"}, "[2]": {"settings": "T/C endpoint: mean survival time, dose: 400.0 mg/kg/injection, schedule: Q01DX001 (ip), vehicle: saline with Tween-80"}, "[3]": {"settings": "T/C endpoint: mean survival time, dose: 400.0 mg/kg/injection, schedule: Q01DX009 (ip), vehicle: saline with Tween-80"}},
  "note": "The list does not hold the whole screen: it is rich in T/C values a quarter to a half above the control, in often repeated tests (any T/C) and in doses without a T/C. Other doses and runs of a compound stand elsewhere. T/C: endpoint of the treated group in % of that of the vehicle group. Some doses have a count of surviving animals in place of a T/C: the source holds a T/C of zero for them, seemingly a mark for toxic or unscored doses. Some doses without a T/C left all or most animals alive at the check, yet need not have been tolerated: survival well below the control is almost never listed, so the zero probably covers shortened survival too. Survivors were counted at the toxicity check, usually on the fifth day, unless a day is given; later deaths do not show. Schedule codes are those of the source, taken here to give the interval after Q, in days (D) or hours (H), and the number of doses after X. Some entries hold several experiments; their values stand side by side, smallest first. Where survival is the endpoint, this PubChem deposit counts one and a half times the control or more as active, and values a quarter to a half above the control carry no call in these data; other NCI protocols may use other cut-offs.",
  "data": [
    {"smiles": "Cc1cc(NCCCCCCNc2cc(C)nc3cc(N(C)C)ccc23)c2ccc(N(C)C)cc2n1", "values": [
      {"measurement": "T/C", "setting": "T/C endpoint: median survival time, dose: 3.12 mg/kg/injection, schedule: Q01DX009 (ip), vehicle: distilled water + Tween-80 + alcohol", "value": "132 % of control"},
      {"measurement": "T/C", "setting": "T/C endpoint: median survival time, dose: 6.25 mg/kg/injection, schedule: Q01DX009 (ip), vehicle: distilled water + Tween-80 + alcohol", "value": "137 and 138 % of control"},
      {"measurement": "T/C", "setting": "T/C endpoint: median survival time, dose: 12.5 mg/kg/injection, schedule: Q01DX009 (ip), vehicle: distilled water + Tween-80 + alcohol", "value": "141 and 146 % of control"},
      {"measurement": "survivor count", "setting": "T/C endpoint: median survival time, dose: 50.0 mg/kg/injection, schedule: Q01DX009 (ip), vehicle: distilled water + Tween-80 + alcohol", "value": "0 of 6 and 5 of 6"},
      {"measurement": "survivor count", "setting": "T/C endpoint: median survival time, dose: 100.0 mg/kg/injection, schedule: Q01DX009 (ip), vehicle: distilled water + Tween-80 + alcohol", "value": "0 of 6"}
    ]},
    {"smiles": "CCOC(=O)C1C2CC(O)C(O)CC21", "note": "(centres undefined)", "values": [
      {"measurement": "survivor count", "setting": "T/C endpoint: median survival time, dose: 100.0 mg/kg/injection, schedule: Q04DX003 (ip), vehicle: saline with Tween-80", "value": "3 of 3"},
      {"measurement": "survivor count", "setting": "T/C endpoint: median survival time, dose: 200.0 mg/kg/injection, schedule: Q04DX003 (ip), vehicle: saline with Tween-80", "value": "3 of 3"}
    ]},
    {"smiles": "NNc1nnc(Cl)cc1N", "values": [
      {"measurement": "survivor count", "setting": "T/C endpoint: mean survival time, dose: 200.0 mg/kg/injection, schedule: Q04DX003 (ip), vehicle: saline with Tween-80", "value": "1 of 6"},
      {"measurement": "survivor count", "setting": "[1]", "value": "0 of 6"}
    ]},
    {"smiles": "CC1(C)SC(C(NC(=O)COc2ccccc2)C(=O)O)NC1C(=O)O", "note": "(centres undefined)", "values": [
      {"measurement": "survivor count", "setting": "[1]", "value": "0 of 6"}
    ]},
    {"smiles": "CC(=O)N/N=C\\C1=CCC=C(Br)S1", "values": [
      {"measurement": "survivor count", "setting": "[2]", "value": "3 of 6"}
    ]},
    {"smiles": "COC(=O)CC1OCC=C2CN3CCC45C6=CC(=O)C(=O)C([N+](=O)[O-])=C6NC4C1C2CC35", "note": "(centres undefined)", "values": [
      {"measurement": "survivor count", "setting": "T/C endpoint: mean survival time, dose: 75.0 mg/kg/injection, schedule: Q01DX001 (ip), vehicle: saline", "value": "0 of 6"},
      {"measurement": "survivor count", "setting": "T/C endpoint: mean survival time, dose: 150.0 mg/kg/injection, schedule: Q01DX001 (ip), vehicle: saline", "value": "0 of 6"},
      {"measurement": "survivor count", "setting": "T/C endpoint: mean survival time, dose: 300.0 mg/kg/injection, schedule: Q01DX001 (ip), vehicle: saline", "value": "0 of 6"}
    ]},
    {"smiles": "O=C(O)c1nnc(C(=O)O)nn1", "values": [
      {"measurement": "survivor count", "setting": "T/C endpoint: mean survival time, dose: 200.0 mg/kg/injection, schedule: Q01DX009 (ip), vehicle: water", "value": "1 of 6"},
      {"measurement": "survivor count", "setting": "T/C endpoint: mean survival time, dose: 400.0 mg/kg/injection, schedule: Q01DX009 (ip), vehicle: water", "value": "0 of 6"}
    ]},
    {"smiles": "Oc1ccccc1C=NCCC[N-]CCCN=Cc1ccccc1O.[Co]", "values": [
      {"measurement": "survivor count", "setting": "T/C endpoint: mean survival time, dose: 100.0 mg/kg/injection, schedule: Q01DX009 (ip), vehicle: saline", "value": "1 of 6"},
      {"measurement": "survivor count", "setting": "T/C endpoint: mean survival time, dose: 200.0 mg/kg/injection, schedule: Q01DX009 (ip), vehicle: saline", "value": "0 of 6"}
    ]},
    {"smiles": "NC(=O)C#CC(N)=O", "values": [
      {"measurement": "survivor count", "setting": "T/C endpoint: mean survival time, dose: 6.0 mg/kg/injection, schedule: Q01DX009 (ip), vehicle: saline", "value": "2 of 6"},
      {"measurement": "survivor count", "setting": "T/C endpoint: mean survival time, dose: 12.0 mg/kg/injection, schedule: Q01DX009 (ip), vehicle: saline", "value": "0 of 6"}
    ]},
    {"smiles": "CC(=O)OC1COC(NC(=O)N(CCCl)N=O)C(OC(C)=O)C1OC(C)=O", "note": "(centres undefined)", "values": [
      {"measurement": "T/C", "setting": "T/C endpoint: median survival time, dose: 1.5 mg/kg/injection, schedule: Q01DX009 (ip), vehicle: saline with Tween-80, evaluated on day 30", "value": "125 and 139 % of control"},
      {"measurement": "T/C", "setting": "T/C endpoint: median survival time, dose: 1.5 mg/kg/injection, schedule: Q01DX009 (ip), vehicle: saline with Tween-80, evaluated on day 60", "value": "144 % of control"},
      {"measurement": "T/C", "setting": "T/C endpoint: median survival time, dose: 3.0 mg/kg/injection, schedule: Q01DX009 (ip), vehicle: saline with Tween-80", "value": "140 % of control"}
    ]},
    {"smiles": "C/C(=C/C(=O)O)C(=O)O.[NH-]C1CCCCC1[NH-].[Pt+2]", "values": [
      {"measurement": "T/C", "setting": "T/C endpoint: median survival time, dose: 100.0 mg/kg/injection, schedule: Q04DX003 (ip), vehicle: saline", "value": "132 and 133 % of control"}
    ]},
    {"smiles": "COc1cc2c(cc1OC)C[N+]1(C)CCc3cc(OC)c(OC)cc3C1C2", "note": "(centres undefined)", "values": [
      {"measurement": "survivor count", "setting": "T/C endpoint: mean survival time, dose: 80.0 mg/kg/injection, schedule: Q01DX001 (ip), vehicle: saline", "value": "3 of 6"}
    ]},
    {"smiles": "S=C1CCCCN1", "values": [
      {"measurement": "survivor count", "setting": "T/C endpoint: median survival time, dose: 400.0 mg/kg/injection, schedule: Q01DX009 (ip), vehicle: distilled water + alcohol", "value": "0 of 6"}
    ]},
    {"smiles": "CC1(C)c2c3ccccc3cc3cccc(c23)[S+]1c1ccccc1", "note": "(centres undefined)", "values": [
      {"measurement": "survivor count", "setting": "T/C endpoint: mean survival time, dose: 100.0 mg/kg/injection, schedule: Q01DX001 (ip), vehicle: saline with Tween-80", "value": "0 of 6"},
      {"measurement": "survivor count", "setting": "T/C endpoint: mean survival time, dose: 200.0 mg/kg/injection, schedule: Q01DX001 (ip), vehicle: saline with Tween-80", "value": "0 of 6"},
      {"measurement": "survivor count", "setting": "[2]", "value": "0 of 6"}
    ]},
    {"smiles": "S=c1[nH]cc2cnccn12", "values": [
      {"measurement": "survivor count", "setting": "[3]", "value": "3 of 10"}
    ]},
    {"smiles": "Cc1cc2oc(=O)cc(O)c2c(=O)o1", "values": [
      {"measurement": "survivor count", "setting": "[3]", "value": "3 of 6"}
    ]},
    {"smiles": "Cc1ccc(NCC(=O)O)c([N+](=O)[O-])c1", "values": [
      {"measurement": "survivor count", "setting": "[1]", "value": "6 of 6"}
    ]},
    {"smiles": "N#CCCCN1C(=O)c2ccccc2C1=O", "values": [
      {"measurement": "survivor count", "setting": "T/C endpoint: mean survival time, dose: 400.0 mg/kg/injection, schedule: Q01DX009 (ip), vehicle: Klucel (hydroxypropylcellulose) (HPC)", "value": "6 of 6"}
    ]},
    {"smiles": "N=C(N)N", "values": [
      {"measurement": "survivor count", "setting": "[1]", "value": "0 of 6"}
    ]}
  ]
}
